# Some results were stated once for a whole list of compounds, not compound by compound.
# How the values were obtained:
# [1] = tested on: recombinant pectic acid lyase of Bacillus sp. KSM-P15 (rPAL, Example 8), Sequence No. 1; test: Effect of specific inhibitors on residual pectic acid lyase activity; assay type: biochemical
# [2] = tested on: pectic acid lyase from Bacillus sp. KSM-P15, wild type (BPAL, Example 3), Sequence No. 1; test: as above; assay type: biochemical
# [3] = inhibitor 0.5 mM, 50 mM Tris-HCl buffer (pH 7.5), 30°C, one hour, residual activity
SMILES,"inhibition (in words) ([1]; pH 7.5, 1000 µM)","inhibition (in words) ([2]; pH 7.5, 1000 µM)","inhibition (in words) [1, 3]","inhibition (in words) [2, 3]"
O[C@H](CS)[C@H](O)CS (racemic) [dithiothreitol],slightly inhibited or did not completely inhibit,slightly inhibited or did not completely inhibit,,
CCN1C(=O)C=CC1=O [N-ethylmaleimide],slightly inhibited or did not completely inhibit,slightly inhibited or did not completely inhibit,,
CCOC(=O)OC(=O)OCC [diethyl pyrocarbonate],slightly inhibited or did not completely inhibit,slightly inhibited or did not completely inhibit,,
O=CC=O [glyoxal],slightly inhibited or did not completely inhibit,slightly inhibited or did not completely inhibit,,
O=C(O)c1cc[c]([Hg][Cl])cc1 [p-Chloromercuribenzoic acid],,,slightly inhibited or did not completely inhibit,slightly inhibited or did not completely inhibit

# From patent EP1500700B1, “Use of a pectic acid lyase in a detergent” (KAO CORPORATION, priority 1997, dated 1998)
